Measurements reported in PubChem BioAssay AID1259254 (NCATS, 2017).
Assay: 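Gene knock-downs that lead to re-replication, shown by excess G2 DNA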 (primary screen). Cell system: human HCT116 colorectal cancer cells. Reagents: single siRNA against human genes. Time to read-out: 3 days. Detection: 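Nuclei stained with Hoechst and imaged; cell-cycle phase assigned by DNA content; G2 share scaled per plate, non-targeting siRNA 0%, GMNN siRNA 100%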. Reading the numbers: G2 robust z-score and G2 cells, % of GMNN control: higher = more G2 cells, more excess DNA replication. Active means: 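An siRNA counts as active if its G2 robust z-score lies at least 5 MADs above the screen median; here such calls match roughly 38% of GMNN control or more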.
This is one part, drawn at random, of about 59,000 reagents tested. Over the whole deposit, about 1,550 (2.6%) got an active call. 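G2 share is only a proxy for re-replication; each gene was hit by three separate siRNAs, and active genes were retested.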 The numbers tell different reagents against one gene apart. Not all columns of the deposit are shown. Not stated in the record: the amount of reagent.

| target gene | siRNA no. | G2 robust z-score | G2 cells, % of GMNN control | Outcome |
| --- | --- | --- | --- | --- |
| BLOC1S4 | 1 | -0.491 | -0.488 | inactive |
| BLOC1S4 | 2 | 2.12 | 17.9 | inactive |
| BLOC1S4 | 3 | -0.548 | -0.888 | inactive |
| USP1 | 1 | 0.694 | 7.85 | inactive |
| USP1 | 2 | 3.43 | 27.1 | inactive |
| USP1 | 3 | -0.606 | -1.29 | inactive |
| PRCD | 1 | 0.727 | 8.08 | inactive |
| PRCD | 2 | -0.475 | -0.373 | inactive |
| PRCD | 3 | 0.736 | 8.15 | inactive |
| TGFBRAP1 | 1 | 1.99 | 17 | inactive |
| TGFBRAP1 | 2 | 0.0904 | 3.6 | inactive |
| TGFBRAP1 | 3 | -0.487 | -0.456 | inactive |
| FILIP1L | 1 | -0.269 | 1.07 | inactive |
| FILIP1L | 2 | -0.832 | -2.89 | inactive |
| FILIP1L | 3 | -0.204 | 1.53 | inactive |
| LOC644173 (retired record) | 1 | -0.093 | 2.31 | inactive |
| LOC644173 (retired record) | 2 | -0.289 | 0.935 | inactive |
| LOC644173 (retired record) | 3 | 1.06 | 10.4 | inactive |
| CACNA1F | 1 | -0.292 | 0.916 | inactive |
| CACNA1F | 2 | -0.817 | -2.78 | inactive |
| CACNA1F | 3 | -0.877 | -3.21 | inactive |
| SIX5 | 1 | -0.315 | 0.753 | inactive |
| SIX5 | 2 | -0.517 | -0.669 | inactive |
| SIX5 | 3 | -0.619 | -1.39 | inactive |
| ZC3H12A | 1 | 0.371 | 5.58 | inactive |
| ZC3H12A | 2 | -0.576 | -1.09 | inactive |
| ZC3H12A | 3 | -0.465 | -0.305 | inactive |
| DUXAP10 | 1 | -0.411 | 0.0734 | inactive |
| DUXAP10 | 2 | -0.261 | 1.13 | inactive |
| DUXAP10 | 3 | -0.816 | -2.78 | inactive |
| USH1G | 1 | 1.19 | 11.4 | inactive |
| USH1G | 2 | -0.352 | 0.494 | inactive |
| USH1G | 3 | -0.448 | -0.188 | inactive |
| ENTPD7 | 1 | 0.773 | 8.41 | inactive |
| ENTPD7 | 2 | 0.187 | 4.29 | inactive |
| ENTPD7 | 3 | -0.686 | -1.86 | inactive |
| CCR6 | 1 | 0.733 | 8.12 | inactive |
| CCR6 | 2 | 1.97 | 16.8 | inactive |
| CCR6 | 3 | -0.441 | -0.133 | inactive |
| DNLZ | 1 | -0.919 | -3.5 | inactive |
| DNLZ | 2 | -0.623 | -1.42 | inactive |
| DNLZ | 3 | -0.548 | -0.886 | inactive |
| HNRNPA1 | 1 | 0.811 | 8.68 | inactive |
| HNRNPA1 | 2 | -0.58 | -1.11 | inactive |
| HNRNPA1 | 3 | 0.101 | 3.68 | inactive |
| NGRNP1 | 1 | 0.0292 | 3.17 | inactive |
| NGRNP1 | 2 | 0.12 | 3.81 | inactive |
| NGRNP1 | 3 | -0.0736 | 2.45 | inactive |
| LOC401220 (retired record) | 1 | -1.36 | -6.62 | inactive |
| LOC401220 (retired record) | 2 | 0.797 | 8.58 | inactive |
| LOC401220 (retired record) | 3 | -0.737 | -2.22 | inactive |
| P3H3 | 1 | -0.594 | -1.22 | inactive |
| P3H3 | 2 | 1.27 | 11.9 | inactive |
| P3H3 | 3 | 1.56 | 13.9 | inactive |
| IL1RAPL1 | 1 | -0.651 | -1.61 | inactive |
| IL1RAPL1 | 2 | 0.314 | 5.18 | inactive |
| IL1RAPL1 | 3 | 0.117 | 3.79 | inactive |
| ELAPOR1 | 1 | -1.18 | -5.36 | inactive |
| ELAPOR1 | 2 | -0.785 | -2.56 | inactive |
| ELAPOR1 | 3 | -0.547 | -0.881 | inactive |
| KLF14 | 1 | 0.142 | 3.96 | inactive |
| KLF14 | 2 | 3.75 | 29.3 | inactive |
| KLF14 | 3 | -0.759 | -2.37 | inactive |
| LRRC28 | 1 | 0.535 | 6.73 | inactive |
| LRRC28 | 2 | 1.39 | 12.7 | inactive |
| LRRC28 | 3 | -0.462 | -0.282 | inactive |
| DPY19L1 | 1 | 2.43 | 20.1 | inactive |
| DPY19L1 | 2 | 1.23 | 11.6 | inactive |
| DPY19L1 | 3 | -0.361 | 0.426 | inactive |

12 of these entries, reformatted:
{"target gene":"P3H3","siRNA no.":2,"G2 robust z-score":1.27,"G2 cells, % of GMNN control":11.9,"Outcome":"inactive"}
{"target gene":"P3H3","siRNA no.":3,"G2 robust z-score":1.56,"G2 cells, % of GMNN control":13.9,"Outcome":"inactive"}
{"target gene":"IL1RAPL1","siRNA no.":1,"G2 robust z-score":-0.651,"G2 cells, % of GMNN control":-1.61,"Outcome":"inactive"}
{"target gene":"IL1RAPL1","siRNA no.":2,"G2 robust z-score":0.314,"G2 cells, % of GMNN control":5.18,"Outcome":"inactive"}
{"target gene":"IL1RAPL1","siRNA no.":3,"G2 robust z-score":0.117,"G2 cells, % of GMNN control":3.79,"Outcome":"inactive"}
{"target gene":"ELAPOR1","siRNA no.":1,"G2 robust z-score":-1.18,"G2 cells, % of GMNN control":-5.36,"Outcome":"inactive"}
{"target gene":"ELAPOR1","siRNA no.":2,"G2 robust z-score":-0.785,"G2 cells, % of GMNN control":-2.56,"Outcome":"inactive"}
{"target gene":"ELAPOR1","siRNA no.":3,"G2 robust z-score":-0.547,"G2 cells, % of GMNN control":-0.881,"Outcome":"inactive"}
{"target gene":"KLF14","siRNA no.":1,"G2 robust z-score":0.142,"G2 cells, % of GMNN control":3.96,"Outcome":"inactive"}
{"target gene":"KLF14","siRNA no.":2,"G2 robust z-score":3.75,"G2 cells, % of GMNN control":29.3,"Outcome":"inactive"}
{"target gene":"KLF14","siRNA no.":3,"G2 robust z-score":-0.759,"G2 cells, % of GMNN control":-2.37,"Outcome":"inactive"}
{"target gene":"LRRC28","siRNA no.":1,"G2 robust z-score":0.535,"G2 cells, % of GMNN control":6.73,"Outcome":"inactive"}
